Measurements from publication PMC6925144, “A prospective compound screening contest identified broader inhibitors for Sirtuin 1” (Scientific Reports, 2019).
The full ranking holds about 3,200 compounds; the median of “TSA(without NAD+) / Primary screening (TSA) / delta Tm (K)” is about -0.07, and the highest 2% start at about 0.37. This is one part of the list.

The chains behind the UniProt entries cited, without tags or fusion partners. Residues count along the entry.
UniProt Q96EB6, 2-747 limits assumed: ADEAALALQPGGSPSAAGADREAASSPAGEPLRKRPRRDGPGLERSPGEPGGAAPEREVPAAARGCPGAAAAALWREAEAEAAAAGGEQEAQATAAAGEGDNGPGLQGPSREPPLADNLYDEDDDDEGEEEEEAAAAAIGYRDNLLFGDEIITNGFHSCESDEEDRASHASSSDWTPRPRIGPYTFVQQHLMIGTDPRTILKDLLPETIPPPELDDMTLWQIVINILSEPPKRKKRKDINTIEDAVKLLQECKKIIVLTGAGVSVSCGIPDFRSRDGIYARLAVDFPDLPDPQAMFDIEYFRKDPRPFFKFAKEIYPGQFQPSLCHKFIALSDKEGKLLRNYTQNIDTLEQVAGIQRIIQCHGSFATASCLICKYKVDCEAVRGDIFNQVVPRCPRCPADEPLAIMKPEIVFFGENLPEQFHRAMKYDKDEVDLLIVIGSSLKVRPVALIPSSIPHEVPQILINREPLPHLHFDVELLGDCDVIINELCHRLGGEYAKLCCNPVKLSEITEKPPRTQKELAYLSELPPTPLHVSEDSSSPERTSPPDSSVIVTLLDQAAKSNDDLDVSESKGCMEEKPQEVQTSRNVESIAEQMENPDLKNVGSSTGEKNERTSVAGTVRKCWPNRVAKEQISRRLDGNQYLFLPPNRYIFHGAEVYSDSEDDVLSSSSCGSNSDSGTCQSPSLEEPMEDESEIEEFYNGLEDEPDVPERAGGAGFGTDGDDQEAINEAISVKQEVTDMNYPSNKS

Molecular target: NAD-dependent deacetylase Sirtuin 1 (human, UniProt Q96EB6)
Test: primary screen, delta tm
Parameters: single well (n = 1)
Conditions: 10 µM
Method in brief: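 Thermal shift of Sirtuin 1 measured without NAD+, compound at 10 µM (n = 1); value is ΔTm, with hits defined as ΔTm > 0.45 K or < −1.5 K. Hits retested at 5, 10, 20 µM (n = 4) and counterscreened on bovine carbonic anhydrase and ABL1 SH2 domain.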

How did the “TSA(without NAD+) / Primary screening (TSA) / delta Tm (K)” value turn out when `CCOC(=O)c1oc2ccccc2c1COC(=O)Cn1cnnn1` was run?
Its value is -0.33 K.

Which “TSA(without NAD+) / Primary screening (TSA) / delta Tm (K)” value does the source give for `N#Cc1c(Cn2nnc3ccccc3c2=O)cn2ccccc12` here?
The value was 0.07 K.

For `Cc1nsc(NCc2cccnc2N2CCC(C(N)=O)CC2)n1`, which “TSA(without NAD+) / Primary screening (TSA) / delta Tm (K)” value is on record?
The value was 0.12 K.

`O=C1CCC(C(=O)N(C2CCCC2)C2CC2)N1` (stereo not shown) was tested. Which “TSA(without NAD+) / Primary screening (TSA) / delta Tm (K)” value did it give?
Its value is -0.15 K.

`CC(Oc1ccc(F)c(Cl)c1)C(N)=O` (stereo not shown) was tested. Which “TSA(without NAD+) / Primary screening (TSA) / delta Tm (K)” value did it give?
Its value is -0.17 K.

For `O=C(O)CCn1cnc2sccc2c1=O`, which “TSA(without NAD+) / Primary screening (TSA) / delta Tm (K)” value is on record?
The value was -0.21 K.

How did the “TSA(without NAD+) / Primary screening (TSA) / delta Tm (K)” value turn out when `O=C(O)CCSc1ccc(F)cc1` was run?
Its value is -0.03 K.

For `O=C(Nc1cc(S(=O)(=O)N2CCOCC2)ccc1OCC(F)(F)F)C1=COCCO1`, which “TSA(without NAD+) / Primary screening (TSA) / delta Tm (K)” value is on record?
Its value is 0.07 K.

How did the “TSA(without NAD+) / Primary screening (TSA) / delta Tm (K)” value turn out when `O=C(c1cnc2c3ccccc3nn2c1)c1ccccc1O` was run?
The value was 0.06 K.

Which “TSA(without NAD+) / Primary screening (TSA) / delta Tm (K)” value does the source give for `CCC(C)NC` (stereo not shown) here?
The value was -0.18 K.

For `CC1CN(Cc2ccc(F)cc2)CCN1C(C)c1nc(C2CC2)no1` (stereo not shown), which “TSA(without NAD+) / Primary screening (TSA) / delta Tm (K)” value is on record?
The value was 0.08 K.

How did the “TSA(without NAD+) / Primary screening (TSA) / delta Tm (K)” value turn out when `CCOc1ccc(C2C(C(=O)c3ccco3)=C(O)C(=O)N2CCCN2CCOCC2)cc1` (stereo not shown) was run?
Its value is -0.13 K.

How did the “TSA(without NAD+) / Primary screening (TSA) / delta Tm (K)” value turn out when `CN(C(=O)CSc1nnc(NCc2ccco2)s1)C1CCCc2ccccc21` (stereo not shown) was run?
The value was -0.03 K.

`O=C(NC1(C(=O)N2CCN(C(=O)c3cnccn3)CC2)CCOC1)OCc1ccccc1` (stereo not shown) was tested. Which “TSA(without NAD+) / Primary screening (TSA) / delta Tm (K)” value did it give?
The value was -0.12 K.

For `N#Cc1ccc(CN2CCC(CCc3ccc(O)cc3)CC2)cc1`, which “TSA(without NAD+) / Primary screening (TSA) / delta Tm (K)” value is on record?
The value was 0.08 K.

`Cc1[nH]c2ccc(C(=O)O)cc2c1C` was tested. Which “TSA(without NAD+) / Primary screening (TSA) / delta Tm (K)” value did it give?
The value was -0.13 K.

For `C#CCCN1CCN(C(C)C(=O)N(C)C(C)C)CC1` (stereo not shown), which “TSA(without NAD+) / Primary screening (TSA) / delta Tm (K)” value is on record?
The value was -0.24 K.

Which “TSA(without NAD+) / Primary screening (TSA) / delta Tm (K)” value does the source give for `Cc1ccc(N(C)S(=O)(=O)c2cccc(C(=O)Nc3ccc(Br)c(C)c3)c2)cc1` here?
Its value is 0.48 K.

For `Cc1ccc(OCCNC(=O)Cc2coc3cc4c(cc23)CCC4)cc1`, which “TSA(without NAD+) / Primary screening (TSA) / delta Tm (K)” value is on record?
The value was -0.07 K.

Which “TSA(without NAD+) / Primary screening (TSA) / delta Tm (K)” value does the source give for `OCn1cnc2ccccc21` here?
The value was -0.31 K.

How did the “TSA(without NAD+) / Primary screening (TSA) / delta Tm (K)” value turn out when `Cc1ccc(OCC(O)Cn2c(C(F)(F)F)ccc(C(N)=O)c2=O)cc1` (stereo not shown) was run?
Its value is -0.13 K.

How did the “TSA(without NAD+) / Primary screening (TSA) / delta Tm (K)” value turn out when `CCCOc1ccc2cc(C(=O)c3ccc(N(C)S(C)(=O)=O)cc3)oc2c1` was run?
Its value is -0.05 K.

With `COc1ccc(N)c(OC)c1` as the molecule, how does the “TSA(without NAD+) / Primary screening (TSA) / delta Tm (K)” value read?
The value was -0.02 K.

With `Cc1ccc(-n2nnnc2SCc2nc3c(cnn3-c3ccccc3)c(=O)[nH]2)cc1` as the molecule, how does the “TSA(without NAD+) / Primary screening (TSA) / delta Tm (K)” value read?
The value was -0.15 K.

How did the “TSA(without NAD+) / Primary screening (TSA) / delta Tm (K)” value turn out when `CCc1nn2c(=O)cc(COC(=O)C(O)(c3ccccc3)c3ccccc3)nc2s1` was run?
The value was -0.08 K.

How did the “TSA(without NAD+) / Primary screening (TSA) / delta Tm (K)” value turn out when `N#CCNC(=O)c1ccc2[nH]c3c(c2c1)CCCC3` was run?
Its value is -0.01 K.

`COc1cccc(C(=O)OC(C)C(=O)Nc2ccc(C(N)=O)cc2)c1OC` (stereo not shown) was tested. Which “TSA(without NAD+) / Primary screening (TSA) / delta Tm (K)” value did it give?
Its value is 0.12 K.

For `CN(C)C(=O)N1CCCC(C(=O)Nc2ccc3c(c2)-c2ccccc2C3)C1` (stereo not shown), which “TSA(without NAD+) / Primary screening (TSA) / delta Tm (K)” value is on record?
The value was -0.23 K.

With `Cc1nc(-c2ccccn2)[nH]c(=O)c1CC(=O)NCCc1cccc2cccnc12` as the molecule, how does the “TSA(without NAD+) / Primary screening (TSA) / delta Tm (K)” value read?
Its value is -0.07 K.

`CN(c1ccccc1)S(=O)(=O)c1cccc(C(=O)Nc2ccccc2)c1` was tested. Which “TSA(without NAD+) / Primary screening (TSA) / delta Tm (K)” value did it give?
Its value is 0.12 K.

For `CCc1ccc(C(N)=S)cc1`, which “TSA(without NAD+) / Primary screening (TSA) / delta Tm (K)” value is on record?
The value was -0.22 K.

How did the “TSA(without NAD+) / Primary screening (TSA) / delta Tm (K)” value turn out when `CCc1ncc(F)c(Cl)n1` was run?
The value was -0.22 K.

Which “TSA(without NAD+) / Primary screening (TSA) / delta Tm (K)” value does the source give for `CCn1cc(C2CCN(C(=O)Cc3cnc4ccccc4c3)CC2)cn1` here?
Its value is -0.17 K.

`COC(C)CN` (stereo not shown) was tested. Which “TSA(without NAD+) / Primary screening (TSA) / delta Tm (K)” value did it give?
Its value is -0.17 K.

For `Cc1oc(C)c(C(=O)NCc2cccc(NC(=O)CN(C)C)c2)c1C`, which “TSA(without NAD+) / Primary screening (TSA) / delta Tm (K)” value is on record?
Its value is -0.18 K.

For `Nc1nc(-c2cc3ccccc3oc2=O)nc2c1c(=O)oc1ccccc12`, which “TSA(without NAD+) / Primary screening (TSA) / delta Tm (K)” value is on record?
Its value is 0.08 K.

Which “TSA(without NAD+) / Primary screening (TSA) / delta Tm (K)” value does the source give for `CC(N)CCN(C)C` (stereo not shown) here?
The value was -0.11 K.

How did the “TSA(without NAD+) / Primary screening (TSA) / delta Tm (K)” value turn out when `Cc1oc(-c2ccccc2)nc1CN1CCN(c2nncc3ccccc23)CC1` was run?
Its value is -0.05 K.

For `Cc1c(Cl)cccc1NC(=O)CNC(N)=O`, which “TSA(without NAD+) / Primary screening (TSA) / delta Tm (K)” value is on record?
The value was -0.28 K.

For `COc1cccc(CSc2nc3ccsc3c(=O)n2C)c1`, which “TSA(without NAD+) / Primary screening (TSA) / delta Tm (K)” value is on record?
The value was -0.13 K.

`CCOc1cc(N2CCOCC2)c(OCC)cc1NC(=O)C1=COCCO1` was tested. Which “TSA(without NAD+) / Primary screening (TSA) / delta Tm (K)” value did it give?
The value was -0.15 K.

How did the “TSA(without NAD+) / Primary screening (TSA) / delta Tm (K)” value turn out when `CCNc1ccnc(CSc2nc3ccsc3c(=O)n2C)c1` was run?
The value was 0.15 K.

Which “TSA(without NAD+) / Primary screening (TSA) / delta Tm (K)” value does the source give for `COC(=O)CNC(=O)c1cccc(NC(=O)CCc2nnc(-c3ccc(Cl)cc3)o2)c1` here?
Its value is 0.02 K.

`O=C1/C(=C/c2cccc(Br)c2)Oc2cc(O)ccc21` was tested. Which “TSA(without NAD+) / Primary screening (TSA) / delta Tm (K)” value did it give?
Its value is 0.19 K.

`CC(SCc1cccc2ccccc12)C(=O)Nc1ncccn1` (stereo not shown) was tested. Which “TSA(without NAD+) / Primary screening (TSA) / delta Tm (K)” value did it give?
The value was -0.17 K.

With `O=C(OCc1ccccc1)c1c[nH]c2ccccc12` as the molecule, how does the “TSA(without NAD+) / Primary screening (TSA) / delta Tm (K)” value read?
Its value is -0.24 K.

`O=C(COC(=O)c1ccc(S(=O)(=O)N2CCCc3ccccc32)cc1)NC12CC3CC(CC(C3)C1)C2` was tested. Which “TSA(without NAD+) / Primary screening (TSA) / delta Tm (K)” value did it give?
Its value is -0.05 K.

How did the “TSA(without NAD+) / Primary screening (TSA) / delta Tm (K)” value turn out when `CCCC(N)CC` (stereo not shown) was run?
The value was -0.11 K.

How did the “TSA(without NAD+) / Primary screening (TSA) / delta Tm (K)” value turn out when `COc1cc(C(C)=O)ccc1OCc1noc(C)n1` was run?
The value was -0.24 K.
